Results are given in words; binding and its absence hold for the method and conditions named. Binding can be weak; no strength is given. Tags and fused reporters may be left off the sequences shown.

In assay [1] the target is GST-tagged HIV-1 integrase (IN) (HIV-1). Put plainly: AlphaScreen or HTRF; His6-TRN-SR2 titrated (3-fold dilution series from 1,000 nM) over a fixed 80 nM GST-IN; Ni2+ chelate acceptor and glutathione donor beads; 25 mM Tris pH 7.4, 150 mM NaCl, 1 mM MgCl2, 0.1% Tween 20, 0.1% BSA; 1 h at 4°C, then 1 h at 30°C with beads; both purified.
The target of assay [2] is N-terminally His6-tagged HIV-1 IN (HIV-1). Put plainly: AlphaScreen or HTRF; alternative tags (Fig. S5): GST-TRN-SR2 titrated (3-fold dilution series from 1,000 nM) over a fixed 200 nM His6-IN; Ni2+ chelate acceptor and glutathione donor beads; 25 mM Tris pH 7.4, 150 mM NaCl, 1 mM MgCl2, 0.1% Tween 20, 0.1% BSA; both purified.

B1: His6-tagged WT TRN-SR2 (transportin-SR2) (protein, UniProt Q9Y5L0-2 1-923)
chain: MEGAKPTLQLVYQAVQALYHDPDPSGKERASFWLGELQRSVHAWEISDQLLQIRQDVESCYFAAQTMKMKIQTSFYELPTDSHASLRDSLLTHIQNLKDLSPVIVTQLALAIADLALQMPSWKGCVQTLVEKYSNDVTSLPFLLEILTVLPEEVHSRSLRIGANRRTEIIEDLAFYSSTVVSLLMTCVEKAGTDEKMLMKVFRCLGSWFNLGVLDSNFMANNKLLALLFEVLQQDKTSSNLHEAASDCVCSALYAIENVETNLPLAMQLFQGVLTLETAYHMAVAREDLDKVLNYCRIFTELCETFLEKIVCTPGQGLGDLRTLELLLICAGHPQYEVVEISFNFWYRLGEHLYKTNDEVIHGIFKAYIQRLLHALARHCQLEPDHEGVPEETDDFGEFRMRVSDLVKDLIFLIGSMECFAQLYSTLKEGNPPWEVTEAVLFIMAAIAKSVDPENNPTLVEVLEGVVRLPETVHTAVRYTSIELVGEMSEVVDRNPQFLDPVLGYLMKGLCEKPLASAAAKAIHNICSVCRDHMAQHFNGLLEIARSLDSFLLSPEAAVGLLKGTALVLARLPLDKITECLSELCSVQVMALKKLLSQEPSNGISSDPTVFLDRLAVIFRHTNPIVENGQTHPCQKVIQEIWPVLSETLNKHRADNRIVERCCRCLRFAVRCVGKGSAALLQPLVTQMVNVYHVHQHSCFLYLGSILVDEYGMEEGCRQGLLDMLQALCIPTFQLLEQQNGLQNHPDTVDDLFRLATRFIQRSPVTLLRSQVVIPILQWAIASTTLDHRDANCSVMRFLRDLIHTGVANDHEEDFELRKELIGQVMNQLGQQLVSQLLHTCCFCLPPYTLPDVAEVLWEIMQVDRPTFCRWLENSLKGLPKETTVGAVTVTHKQLTDFHKQVTSAEECKQVCWALRDFTRLFR
Regarding B1, the binding result in assay [1] is recorded as “binds”.

B2: GST-tagged WT TRN-SR2 (protein, UniProt Q9Y5L0-2 1-923)
chain: MEGAKPTLQLVYQAVQALYHDPDPSGKERASFWLGELQRSVHAWEISDQLLQIRQDVESCYFAAQTMKMKIQTSFYELPTDSHASLRDSLLTHIQNLKDLSPVIVTQLALAIADLALQMPSWKGCVQTLVEKYSNDVTSLPFLLEILTVLPEEVHSRSLRIGANRRTEIIEDLAFYSSTVVSLLMTCVEKAGTDEKMLMKVFRCLGSWFNLGVLDSNFMANNKLLALLFEVLQQDKTSSNLHEAASDCVCSALYAIENVETNLPLAMQLFQGVLTLETAYHMAVAREDLDKVLNYCRIFTELCETFLEKIVCTPGQGLGDLRTLELLLICAGHPQYEVVEISFNFWYRLGEHLYKTNDEVIHGIFKAYIQRLLHALARHCQLEPDHEGVPEETDDFGEFRMRVSDLVKDLIFLIGSMECFAQLYSTLKEGNPPWEVTEAVLFIMAAIAKSVDPENNPTLVEVLEGVVRLPETVHTAVRYTSIELVGEMSEVVDRNPQFLDPVLGYLMKGLCEKPLASAAAKAIHNICSVCRDHMAQHFNGLLEIARSLDSFLLSPEAAVGLLKGTALVLARLPLDKITECLSELCSVQVMALKKLLSQEPSNGISSDPTVFLDRLAVIFRHTNPIVENGQTHPCQKVIQEIWPVLSETLNKHRADNRIVERCCRCLRFAVRCVGKGSAALLQPLVTQMVNVYHVHQHSCFLYLGSILVDEYGMEEGCRQGLLDMLQALCIPTFQLLEQQNGLQNHPDTVDDLFRLATRFIQRSPVTLLRSQVVIPILQWAIASTTLDHRDANCSVMRFLRDLIHTGVANDHEEDFELRKELIGQVMNQLGQQLVSQLLHTCCFCLPPYTLPDVAEVLWEIMQVDRPTFCRWLENSLKGLPKETTVGAVTVTHKQLTDFHKQVTSAEECKQVCWALRDFTRLFR
B2: in assay [2], the binding result is “binds”.

Values taken from article PMC8510174.
